{"source": "PubChem BioAssay AID2685", "about": "(National Center for Advancing Translational Sciences (NCATS), 2010)", "note": "The campaign covered roughly 320,000 compounds. About 2,100 (0.66%) were called active. Inconclusive results, whose numbers are uncertain, are shown with a selection of clear calls. The call rests on the fitted dose curve; in most records, active means well fitted inhibition curve with a large enough effect in the signal ratio, with a control signal flat (not every such curve was filed as active); inconclusive means small, poorly fitted or top-dose-only effect, or effect the other way, or a change in a side signal; inactive means flat fitted curve, though single readings scatter; the % refers to the signal ratio. A potency beside an inconclusive call is a rough fit, not a confirmed value.", "data": [{"test": "qHTS Assay for Lipid Storage Modulators in Drosophila S3 Cells; further: potency means the concentration at half of the fitted maximal effect; on lipid storage change, negative = inhibition: on the % scale 0 is the no-effect control and ±100 the full control effect", "details": "BODIPY lipid droplet fluorescence, 18-24 h, cells fed with added oleic acid; lipid storage change, negative = inhibition: at 46.1 µM (top of the series) unless noted", "method_in_brief": "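Laser-scanning cytometry quantifies lipid droplet accumulation (500–530 nm total intensity; droplet/cell object ratio) in oleic acid-fed (400 uM added) Drosophila S3 cells treated with a concentration series. 20 uM Triacsin C defined 100% inhibition.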", "values": [{"compound": "Cc1ccc(NS(=O)(=O)c2cccc(C(=O)NCC(c3ccc(F)cc3)N3CCOCC3)c2)cc1", "note": "(centres undefined)", "lipid storage change, negative = inhibition": "inconclusive: 11%"}, {"compound": "CSc1ccc(/C=C/C(=O)c2ccc(NC(=O)C(C)C)cc2)cc1", "Potency": "inconclusive: 4.61 µM [falling, full curve, poor fit]"}, {"compound": "Cc1ccc(N/C(CSC(N)=O)=N/S(=O)(=O)c2ccccc2)cc1", "Potency": "active: 16.4 µM"}, {"compound": "N#Cc1nc(-c2ccccc2F)oc1NCc1ccccc1", "lipid storage change, negative = inhibition": "inconclusive: 45.6%"}, {"compound": "O=C(COC(=O)c1cc2c(s1)CCCCC2)NC1CCS(=O)(=O)C1", "note": "(centres undefined)", "lipid storage change, negative = inhibition": "inconclusive: -19.7%"}, {"compound": "COc1ccccc1C(=O)COC(=O)CNS(=O)(=O)c1ccc(C)c(C)c1", "lipid storage change, negative = inhibition": "inconclusive: -12.1%"}, {"compound": "CCOc1ccc(/C=N/N(C)c2ccccc2)cc1OC", "Potency": "inconclusive: 0.103 µM [activator, full curve, poor fit]"}, {"compound": "O=C(CNC(=O)c1ccccc1)N/N=C/c1ccccc1Cl", "lipid storage change, negative = inhibition": "inconclusive: -4.38%"}, {"compound": "COc1ccc(NC(=S)NNC(=O)c2nnn(-c3ccccc3)c2C)cc1", "lipid storage change, negative = inhibition": "inconclusive: 18.5%"}, {"compound": "CC(=O)N(/N=C1\\Sc2ccccc2C1=O)c1cccc(C)c1", "lipid storage change, negative = inhibition": "inconclusive: -25.4%"}, {"compound": "CC(=O)Nc1ccc(NC(=O)CC(NC(=O)c2ccccc2)c2ccccc2)cc1", "note": "(centres undefined)", "lipid storage change, negative = inhibition": "inactive: 2.63%"}, {"compound": "COc1ccc(-n2c(SCC(=O)N3CCC(C(=O)O)CC3)nc3ccccc3c2=O)cc1OC", "Potency": "inconclusive: 6.51 µM [falling, single point]"}, {"compound": "Cc1ccc(N(C(=O)C(F)(F)F)C(C(=O)NC2CCCCC2)c2ccncc2)cc1C", "note": "(centres undefined)", "lipid storage change, negative = inhibition": "inconclusive: 3.63%"}, {"compound": "O=C(O)c1cccc(N/N=C/c2cccc3ccccc23)c1", "Potency": "inconclusive: 23.1 µM [activator, single point]"}, {"compound": "CCCNS(=O)(=O)c1cccc(C(=O)NC2CCCc3ccccc32)c1", "note": "(centres undefined)", "Potency": "inconclusive: 18.4 µM [falling, single point]"}, {"compound": "Cn1cnnc1SCC(=O)N1N=C(c2ccc(Cl)cc2)CC1c1ccco1", "note": "(centres undefined)", "lipid storage change, negative = inhibition": "inconclusive: 132%"}, {"compound": "O=C(NNc1c2ccccc2nc2ccccc12)c1cccc(O)c1", "lipid storage change, negative = inhibition": "inconclusive: -24.3%"}, {"compound": "O=C(O)c1ccc(OCc2cn3ccccc3n2)cc1", "lipid storage change, negative = inhibition": "inconclusive: 26.4%"}, {"compound": "CC(=O)c1sc(NC(=O)C2CC(=O)N(Cc3ccccc3)C2)nc1-c1ccccc1", "note": "(centres undefined)", "lipid storage change, negative = inhibition": "inconclusive: -17.8%"}, {"compound": "CC(=O)Oc1ccccc1-n1c(C)nc(=O)c(-c2ccccc2)c1C", "Potency": "inconclusive: 29.1 µM [falling, single point]"}, {"compound": "COc1cccc(NC(=O)CN(C)C(=O)c2cc3ccccc3cc2OC)c1", "Potency": "inconclusive: 20.6 µM [falling, single point]"}, {"compound": "CN(Cc1ccccc1)C(=O)Cc1ccccc1", "lipid storage change, negative = inhibition": "inconclusive: 6.95%"}, {"compound": "CN(Cc1ccccc1)C(=O)CCC1CCN(S(=O)(=O)N(C)C)CC1", "lipid storage change, negative = inhibition": "inconclusive: 34%"}, {"compound": "CC1CCN(c2nc3c(N)ncnc3n2[C@@H]2O[C@H](CO)[C@@H](O)[C@H]2O)CC1", "lipid storage change, negative = inhibition": "inconclusive: -15.5%"}, {"compound": "Cn1nc(C(=O)NCc2ccccc2)c2c1-c1ccccc1S(=O)(=O)C2", "Potency": "inconclusive: 0.92 µM [activator, full curve]"}, {"compound": "O=C(CC1C(=O)NCCN1Cc1cccc(F)c1)NCCCN1CCCC1=O", "note": "(centres undefined)", "lipid storage change, negative = inhibition": "inconclusive: 100%"}, {"compound": "CC1=NC(C#N)=C(C#N)NC(C)(C)C1", "lipid storage change, negative = inhibition": "inconclusive: 5%"}, {"compound": "COc1cccc(CN(C)C(=O)C(Cc2ccccc2)NC(=O)c2ccccc2)c1OC", "note": "(centres undefined)", "lipid storage change, negative = inhibition": "inconclusive: 15.4%"}, {"compound": "CCOc1ccccc1NC(=S)NCC1CCCO1", "note": "(centres undefined)", "lipid storage change, negative = inhibition": "inconclusive: -25.8%"}, {"compound": "Cc1cc(C(=O)COC(=O)/C=C/c2ccc(F)cc2)c(C)n1C", "Potency": "inconclusive: 20.6 µM [activator, single point]"}, {"compound": "CCC(=O)c1ccc(OCC(O)Cn2nc(C)c(Br)c2C)cc1", "note": "(centres undefined)", "lipid storage change, negative = inhibition": "inconclusive: 21.8%"}, {"compound": "CC(=O)Nc1ccc(C23CC4CC(CC(C4)C2)C3)cc1", "lipid storage change, negative = inhibition": "inconclusive: -21.4%"}, {"compound": "COc1ccccc1N1CCN(c2nnc(-c3ccc(F)cc3)c3ccccc23)CC1", "lipid storage change, negative = inhibition": "inconclusive: -43.1%"}, {"compound": "O=C(NC1CCCCC1)C(c1ccc(F)cc1)N(Cc1ccco1)C(=O)Cn1nnc2ccccc21", "note": "(centres undefined)", "Potency": "active: 16.4 µM"}, {"compound": "O=C(CN1C(=O)C2C3C=CC(C3)C2C1=O)NC1CCCc2ccccc21", "note": "(centres undefined)", "lipid storage change, negative = inhibition": "inconclusive: -33.8%"}, {"compound": "N#C/C(=C\\c1cccc(Cl)c1)c1n[nH]c(Cn2cncn2)n1", "lipid storage change, negative = inhibition": "inconclusive: 10.6%"}, {"compound": "Oc1ccccc1N1CCN(c2nnnn2-c2ccccc2)CC1", "Potency": "inconclusive: 0.411 µM [activator, single point]"}, {"compound": "Cc1ccc(C(=O)C2=C(O)C(=O)N(CCCN3CCOCC3)C23C(=O)N(C)c2ccccc23)o1", "note": "(centres undefined)", "lipid storage change, negative = inhibition": "inconclusive: -19.5%"}, {"compound": "CC(C)n1nc(C(=O)Nc2cccc(S(=O)(=O)N3CCOCC3)c2)c2ccccc2c1=O", "Potency": "inconclusive: 20.6 µM [falling, single point]"}]}]}
